Measurements published in PubChem BioAssay AID445 (National Center for Advancing Translational Sciences (NCATS), 2006).
Values joined by “and” are separate entries in the source; they are usually repeats but may differ in a detail not shown here. Equal entries are not always repeated. The list shows a part of the results. Shown are side measurements of this screen, not its main read-out; they come without a call. Compounds called inactive in the main read-out are mostly missing here. The note in brackets gives the kind of curve behind each potency; many fits are weak.

Experiment: IkB Signaling
Conditions: ABC-DLBCL IkBa-CBG/CBR dual luciferase ratio (green luciferase fused to IkBa over red control in OCI-Ly3 lymphoma cells), 4 h
Summary of the method: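 Luminescence ratio of IκBα-fused green versus native red beetle luciferase in OCI-Ly3 cells, 4 h post-doxycycline with compound; red signal alone, scaled from basal (0%) to zero light (-100%), flagged nonspecific or cytotoxic effects.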

[1] = measured here: control luc red channel unless noted
[2] = measured here: IkB-luc green channel
[3] = measured here: control luc red channel

SMILES: Cc1ccc(NC(=O)c2c(C)cc(C)nc2SCC(=O)Nc2ccc(Br)cc2)cc1
- AC50 [1]: 3.98 µM [falling, full curve]

SMILES: CCc1nc2ccc(C(=O)NCCc3ccccc3OC)cc2nc1CC
- AC50 [1]: 39.8 µM [falling, single point]

SMILES: CC1CCN(CCc2nc3cc(NS(=O)(=O)c4ccc(F)cc4)ccc3n2C)CC1
- AC50 [1]: 7.94 µM [falling, partial curve]

SMILES: CC(C)(C)Cc1nnc(NS(=O)(=O)Cc2ccccc2)s1
- AC50 [1]: 7.94 µM [falling, partial curve]

SMILES: CCCC(O)c1nc2ccccc2n1CCCOc1ccc(Cl)cc1 (stereo unspecified)
- AC50 [1]: 20 µM [falling, partial curve]

SMILES: CCc1cccc(NC(=O)C2CCCN(c3ncnc4onc(-c5ccc(F)cc5)c34)C2)c1 (stereo unspecified)
- AC50 [1]: 31.6 µM [falling, single point]

SMILES: CCN1CCSc2ccc(C(=O)NCc3ccc(OC(C)C)cc3)cc21
- AC50 [1]: 20 µM [falling, single point]

SMILES: CCOC(=O)c1cccc(NC(=O)CSc2nnc(CNc3ccc(C)cc3)n2CC)c1
- AC50 [1]: 15.8 µM [falling, partial curve]

SMILES: Cc1nn(-c2ccccc2)c2sc(C(=O)N(CC(=O)NC(C)(C)C)Cc3ccco3)cc12
- AC50 [2]: 10 µM [falling, partial curve]
- AC50 [3]: 12.6 µM [falling, partial curve]

SMILES: Cc1ccc(-n2c(C)cc(C(=O)C(=O)Nc3ccccc3)c2C)c(C)c1
- AC50 [1]: 31.6 µM [falling, single point]

SMILES: CC(=O)Nc1nc2n(n1)C(c1ccc(F)cc1)C=C(c1ccc(Cl)cc1)N2 (stereo unspecified)
- AC50 [1]: 1.58 µM [rising, partial curve]

SMILES: CC(C(=O)NCCSCc1cccc(Cl)c1)N(c1ccccc1)S(C)(=O)=O (stereo unspecified)
- AC50 [1]: 20 µM [falling, partial curve, poor fit]

SMILES: O=c1cc(-c2ccc(O)cc2)oc2cc(O)cc(O)c12
- AC50 [2]: 6.31 µM [falling, partial curve]
- AC50 [3]: 7.94 µM [falling, full curve, poor fit] and 3.98 µM [falling, full curve] and 2.51 µM [falling, full curve]

SMILES: Cc1cccc(OCC(=O)Nc2cccc(OCc3cc(=O)n4cccc(C)c4n3)c2)c1
- AC50 [1]: 1.58 µM [falling, full curve]

SMILES: O=C(/C=C/c1ccccc1)Nc1cc(-c2nc3cc(Cl)ccc3o2)ccc1Cl
- AC50 [1]: 2 µM [falling, full curve]

SMILES: CCOc1cccc2cc(C(=O)N3CCc4ccccc4C3)c(=O)oc12
- AC50 [1]: 0.794 µM [falling, partial curve]

SMILES: Cc1cc2nc(-c3cccc(NC(=O)c4cccc5ccccc45)c3)oc2cc1C
- AC50 [1]: 0.316 µM [falling, full curve]

SMILES: COc1cccc(CNn2c(-c3cccc(C)c3)nc3ccccc3c2=O)c1O
- AC50 [1]: 39.8 µM [falling, single point]

SMILES: CC1CCCN(C(=O)c2cc3ccc4cccnc4c3[nH]2)C1 (stereo unspecified)
- AC50 [1]: 0.501 µM [falling, full curve]

SMILES: COc1ccccc1S(=O)Cc1ccc(C(=O)NCCc2ccc(Cl)cc2)o1 (stereo unspecified)
- AC50 [1]: 10 µM [falling, partial curve]

SMILES: CCCCNC(=O)c1ccc2c(c1)N(Cc1ccc(F)cc1)C(=O)c1ccccc1S2=O (stereo unspecified)
- AC50 [1]: 20 µM [falling, partial curve]

SMILES: Cc1cc(C)c(NC(=O)Cn2c(=O)c3cccn3c3ccccc32)c(C)c1
- AC50 [1]: 2.51 µM [falling, partial curve]

SMILES: Cc1ccc(NC(=O)/C=C\C(=O)N(c2ccc(C(C)C)cc2)C(C(=O)NCc2ccco2)c2ccc(Cl)cc2)cc1 (stereo unspecified)
- AC50 [1]: 15.8 µM [falling, partial curve]

SMILES: CCOCCCNC(=O)c1ccc(-n2c(-c3ccccc3)cc3c2CCCC3)cc1
- AC50 [1]: 3.98 µM [falling, partial curve]

SMILES: O=C1CC(C(=O)N(CC2CCCO2)C(C(=O)NC2CCCCC2)c2ccncc2)CS1 (stereo unspecified)
- AC50 [1]: 20 µM [falling, partial curve]

SMILES: Cc1cccc(CNC(=O)c2ccc(NC(=O)N3CC(C)Sc4ccccc43)cc2)c1 (stereo unspecified)
- AC50 [1]: 25.1 µM [falling, single point]

SMILES: CCCNC(=O)c1cc(S(=O)(=O)N2CCc3ccccc32)ccc1F
- AC50 [1]: 12.6 µM [falling, partial curve]

SMILES: O=C(/C=C\c1ccc2c(c1)OCO2)NC1CC(=O)N(c2cccc(F)c2)C1 (stereo unspecified)
- AC50 [1]: 0.631 µM [rising, full curve]

SMILES: O=[N+]([O-])c1ccc(S(=O)(=O)Cc2ccccc2)c([N+](=O)[O-])c1
- AC50 [1]: 3.16 µM [falling, partial curve]

SMILES: CCOC(=O)c1cccc(NC(=O)c2ccc3nc(Cc4ccccc4)oc3c2)c1
- AC50 [1]: 15.8 µM [falling, partial curve]

SMILES: COc1ccc(Cl)cc1NC(=O)c1cnc2sccn2c1=O
- AC50 [1]: 3.16 µM [rising, full curve]

SMILES: COc1ccc(CN(Cc2ccco2)c2cnc(S(C)(=O)=O)nc2C(=O)Nc2ccc(F)cc2)cc1
- AC50 [1]: 20 µM [falling, single point]

SMILES: Cc1noc(C)c1COc1ccc(C(=O)OCC(=O)N2CC3(C)CC2CC(C)(C)C3)cc1 (stereo unspecified)
- AC50 [1]: 25.1 µM [falling, partial curve]

SMILES: COc1ccc(OC)c(-c2csc(-c3c(N)c(C(=O)c4ccccc4)n4ccccc34)n2)c1
- AC50 [1]: 15.8 µM [falling, partial curve]

SMILES: O=C(c1ccc(Cl)cc1)C1C2C(=O)N(c3ccccc3)C(=O)C2C2CCCN21 (stereo unspecified)
- AC50 [1]: 12.6 µM [falling, partial curve]

SMILES: COc1ccc(S(=O)(=O)N(CC(=O)Nc2cccc(C(F)(F)F)c2)c2ccc(C)cc2)cc1
- AC50 [1]: 7.94 µM [falling, full curve]

SMILES: COc1ccc(C)cc1-n1nnnc1SCc1cc(=O)n2cc(C)ccc2n1
- AC50 [1]: 15.8 µM [falling, partial curve]

SMILES: CCOC(=O)C1CCN(C(c2cc(OC)c(OC)c(OC)c2)c2sc3nc(C)nn3c2O)CC1 (stereo unspecified)
- AC50 [1]: 31.6 µM [falling, single point]

SMILES: CCC(CC)COC(=O)C(C#N)c1nc2ccccc2nc1N1CCN(CC)CC1 (stereo unspecified)
- AC50 [1]: 39.8 µM [falling, single point]
